Assay results taken from PMC6566343.
Results are given in words; binding and its absence hold for the method and conditions named. For part of these data: Binding seen in cells or lysates may run through a third protein. Some results given as binding are weak or reduced against the parent protein; the word gives no strength. For part of these data: Sequences can lack the tags named with a protein.

Experiments:
[1] = target: T1, BD-CIPK11 (full-length CIPK11, Calcineurin B-like interacting protein kinase 11) (Arabidopsis thaliana) (UniProt O22932); assay: two-hybrid; screen with full-length CIPK11 as bait
T1 sequence: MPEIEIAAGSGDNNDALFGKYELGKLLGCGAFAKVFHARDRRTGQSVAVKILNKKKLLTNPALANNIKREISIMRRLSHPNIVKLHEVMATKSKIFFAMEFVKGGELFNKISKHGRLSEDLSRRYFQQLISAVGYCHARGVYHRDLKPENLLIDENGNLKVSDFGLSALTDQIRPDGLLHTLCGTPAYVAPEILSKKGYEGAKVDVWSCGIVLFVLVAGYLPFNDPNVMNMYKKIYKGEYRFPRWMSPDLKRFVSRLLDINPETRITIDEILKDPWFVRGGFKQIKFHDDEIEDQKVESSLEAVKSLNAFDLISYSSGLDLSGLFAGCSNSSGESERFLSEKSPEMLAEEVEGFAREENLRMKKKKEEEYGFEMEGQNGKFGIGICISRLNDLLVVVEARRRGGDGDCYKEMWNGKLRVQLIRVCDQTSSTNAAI

[2] = target: T1, BD-CIPK11 (full-length CIPK11, Calcineurin B-like interacting protein kinase 11) (Arabidopsis thaliana); assay: two-hybrid; BD and AD constructs co-transformed into S. cerevisiae AH109; growth on SD/-Trp/-Leu/-His/-Ade, 30 °C, four days
[3] = target: T2, BD-CIPK11-KD (kinase domain of CIPK11) (Arabidopsis thaliana) (UniProt O22932); assay: as above
T2 sequence: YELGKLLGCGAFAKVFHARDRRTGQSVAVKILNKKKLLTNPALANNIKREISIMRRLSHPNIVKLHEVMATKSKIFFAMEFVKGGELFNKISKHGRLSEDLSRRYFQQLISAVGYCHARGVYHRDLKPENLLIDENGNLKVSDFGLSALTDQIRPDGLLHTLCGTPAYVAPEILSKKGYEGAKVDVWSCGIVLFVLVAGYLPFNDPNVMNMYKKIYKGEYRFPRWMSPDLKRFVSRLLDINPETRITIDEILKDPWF

[4] = target: T3, CIPK11-KD-YN (kinase domain of CIPK11 for BiFC) (Arabidopsis thaliana) (UniProt O22932); assay: split reporter; BiFC with split YFP in N. benthamiana leaf epidermal cells, Agrobacterium infiltration, imaged after 48 h; DAPI for the nucleus
T3 sequence: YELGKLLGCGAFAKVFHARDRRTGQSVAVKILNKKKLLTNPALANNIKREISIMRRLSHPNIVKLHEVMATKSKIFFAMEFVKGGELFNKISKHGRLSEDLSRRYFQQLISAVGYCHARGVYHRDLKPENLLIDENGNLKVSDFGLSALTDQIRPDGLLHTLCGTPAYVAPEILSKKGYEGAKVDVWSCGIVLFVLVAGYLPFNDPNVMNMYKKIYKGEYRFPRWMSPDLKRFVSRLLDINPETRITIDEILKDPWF

[5] = target: T4, CIPK11-YFPN (full-length CIPK11 for BiFC) (Arabidopsis thaliana) (UniProt O22932); assay: as above
T4 sequence: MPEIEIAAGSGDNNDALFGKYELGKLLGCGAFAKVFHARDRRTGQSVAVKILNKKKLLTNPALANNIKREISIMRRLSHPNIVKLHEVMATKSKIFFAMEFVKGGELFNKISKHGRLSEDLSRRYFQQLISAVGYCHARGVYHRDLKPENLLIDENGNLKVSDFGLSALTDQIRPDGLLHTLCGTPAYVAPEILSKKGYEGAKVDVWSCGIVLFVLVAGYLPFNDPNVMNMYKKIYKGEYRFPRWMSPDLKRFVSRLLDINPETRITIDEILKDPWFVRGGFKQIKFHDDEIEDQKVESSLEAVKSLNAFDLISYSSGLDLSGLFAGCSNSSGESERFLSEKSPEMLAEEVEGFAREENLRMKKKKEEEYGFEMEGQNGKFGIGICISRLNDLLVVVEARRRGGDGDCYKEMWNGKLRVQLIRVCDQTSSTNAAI

B1: Di19-3 (prey captured in the yeast two-hybrid screen) (protein, UniProt Q84J70 1-223)
chain: MDSDSWSDRLASATRRYQLAFPSRSDTFLGFEEIDGEEEFREEFACPFCSDYFDIVSLCCHIDEDHPMEAKNGVCPVCAVRVGVDMVAHITLQHANIFKMHRKRKPRRGGSYSTLSILRREFPDGNFQSLFGGSSCIVSSSSSSNVAADPLLSSFISPIADGFFTTESCISAETGPVKKTTIQCLPEQNAKKTSLSAEDHKQKLKRSEFVRELLSSTILDDSL
**Q.** For B1, which binding [1] is on record?
**A.** binds

B2: AD-Di19-3 (dehydration-induced19-3) (protein, UniProt Q84J70 1-223)
chain: MDSDSWSDRLASATRRYQLAFPSRSDTFLGFEEIDGEEEFREEFACPFCSDYFDIVSLCCHIDEDHPMEAKNGVCPVCAVRVGVDMVAHITLQHANIFKMHRKRKPRRGGSYSTLSILRREFPDGNFQSLFGGSSCIVSSSSSSNVAADPLLSSFISPIADGFFTTESCISAETGPVKKTTIQCLPEQNAKKTSLSAEDHKQKLKRSEFVRELLSSTILDDSL
**Q.** Which results are given for B2?
**A.** binding [2]: binds; binding [3]: binds

B3: AD-ABI5 (ABA insensitive 5) (protein, UniProt Q9SJN0 1-442)
chain: MVTRETKLTSEREVESSMAQARHNGGGGGENHPFTSLGRQSSIYSLTLDEFQHALCENGKNFGSMNMDEFLVSIWNAEENNNNQQQAAAAAGSHSVPANHNGFNNNNNNGGEGGVGVFSGGSRGNEDANNKRGIANESSLPRQGSLTLPAPLCRKTVDEVWSEIHRGGGSGNGGDSNGRSSSSNGQNNAQNGGETAARQPTFGEMTLEDFLVKAGVVREHPTNPKPNPNPNQNQNPSSVIPAAAQQQLYGVFQGTGDPSFPGQAMGVGDPSGYAKRTGGGGYQQAPPVQAGVCYGGGVGFGAGGQQMGMVGPLSPVSSDGLGHGQVDNIGGQYGVDMGGLRGRKRVVDGPVEKVVERRQRRMIKNRESAARSRARKQAYTVELEAELNQLKEENAQLKHALAELERKRKQQYFESLKSRAQPKLPKSNGRLRTLMRNPSCPL
**Q.** With B3 as the binder, how does the binding [2] read?
**A.** binds

B4: Di19-3-YFPC (Di19-3 for BiFC) (protein, UniProt Q84J70 1-223)
chain: MDSDSWSDRLASATRRYQLAFPSRSDTFLGFEEIDGEEEFREEFACPFCSDYFDIVSLCCHIDEDHPMEAKNGVCPVCAVRVGVDMVAHITLQHANIFKMHRKRKPRRGGSYSTLSILRREFPDGNFQSLFGGSSCIVSSSSSSNVAADPLLSSFISPIADGFFTTESCISAETGPVKKTTIQCLPEQNAKKTSLSAEDHKQKLKRSEFVRELLSSTILDDSL
**Q.** For B4, which binding [4] is on record?
**A.** binds

**Q.** What about the binding [5] of the same binder?
**A.** binds
